# Source: paper PMC10112799
# Sequences of proteins named here, by UniProt entry; tags and fusion partners are left off.
# UniProt O60603: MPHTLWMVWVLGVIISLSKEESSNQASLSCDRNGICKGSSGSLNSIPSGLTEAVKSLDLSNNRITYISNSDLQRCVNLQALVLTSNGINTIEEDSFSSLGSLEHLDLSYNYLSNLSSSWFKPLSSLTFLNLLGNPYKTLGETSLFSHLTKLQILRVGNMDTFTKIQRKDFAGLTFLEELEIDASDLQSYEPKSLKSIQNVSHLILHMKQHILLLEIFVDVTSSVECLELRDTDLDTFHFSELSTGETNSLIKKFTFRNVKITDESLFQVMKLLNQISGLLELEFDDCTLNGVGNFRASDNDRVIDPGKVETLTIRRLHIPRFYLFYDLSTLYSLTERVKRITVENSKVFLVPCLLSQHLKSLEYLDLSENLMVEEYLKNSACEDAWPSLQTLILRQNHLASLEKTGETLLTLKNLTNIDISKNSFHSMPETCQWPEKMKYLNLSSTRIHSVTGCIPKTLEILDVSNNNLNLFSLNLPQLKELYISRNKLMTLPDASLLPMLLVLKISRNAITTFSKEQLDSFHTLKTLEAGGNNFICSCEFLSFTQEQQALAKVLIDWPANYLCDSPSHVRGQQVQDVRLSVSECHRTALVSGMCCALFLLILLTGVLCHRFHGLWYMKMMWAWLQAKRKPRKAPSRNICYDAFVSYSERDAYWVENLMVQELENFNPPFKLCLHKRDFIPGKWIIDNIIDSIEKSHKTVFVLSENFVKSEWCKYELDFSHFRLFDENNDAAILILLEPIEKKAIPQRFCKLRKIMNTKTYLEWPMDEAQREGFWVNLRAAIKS
# No constants are given. Whether binding was seen depends on the method and setting. Binding seen in cells or lysates may run through a third protein. These calls come from enrichment with a bait or labelling near it, and not all partners need be listed.
# Target: Toll-Like Receptor 2 (TLR2), native (human (endogenous in THP1 and in primary human macrophages)) (UniProt O60603)
# Experiment: affinity purification with mass spectrometry; THP1 macrophages infected with P. gingivalis MOI 10 for 30 min or not infected; live cells cross-linked with DSP (4°C, 2 h); native TLR2 immunoprecipitated with anti-TLR2 (T2.5) on protein G beads; partners eluted with DTT; eluate and beads analysed by LC-MS/MS
substance,measurement,value
"Vinculin (VCL), endogenous (from UniProt P18206-2)",binding,binds
